From patent US20150307610A1
Results are given in words; binding and its absence hold for the method and conditions named. For part of these data: A result given as binding can be weak or reduced; the word gives no strength.

What was measured:
[1] = target: RAGE fragment coated in Fig. 3A (antigen not named on the sheet); assay: condition: about 70 nM (last point, between 10 and 100 nM on the log axis); direct ELISA: purified E. coli RAGE construct protein coated at 1 ug/mL (construct not named for this panel), mAb titrated, donkey anti-mouse HRP, TMB
[2] = target: RAGE fragment coated in Fig. 3B (antigen not named on the sheet); assay: as above
[3] = target: RAGE fragment coated in Fig. 3C (antigen not named on the sheet); assay: as above
[4] = target: RAGE fragment coated in Fig. 4A (antigen not named on the sheet); assay: as above
[5] = target: RAGE fragment coated in Fig. 4B (antigen not named on the sheet); assay: as above
[6] = target: RAGE fragment coated in Fig. 4C (antigen not named on the sheet); assay: as above
[7] = target: RAGE fragment coated in Fig. 4A (antigen not named on the sheet); assay: direct ELISA: purified E. coli RAGE construct protein coated at 1 ug/mL (construct not named for this panel), mAb titrated, donkey anti-mouse HRP, TMB
[8] = target: RAGE fragment coated in Fig. 4B (antigen not named on the sheet); assay: as above
[9] = target: RAGE fragment coated in Fig. 4C (antigen not named on the sheet); assay: as above

binding [1] | binding [2] | binding [3] | binding [4] | binding [5] | binding [6] | binding [7] | binding [8] | binding [9] | Binder
no binding | no binding | no binding | no binding | no binding | no binding |  |  |  | anti-human RAGE monoclonal antibody 7F9 (murine, hybridoma-derived) (antibody, V domains shown) VH: EEKLEESGGGLVQLGGSMKISCVASGFTLSNYWMDWVRQSPEKGLEWIAEIRLKSNYYSTHYAESVKGRFSISRDDSKGSVSLQMDNLTAEDTGIYFCARNAYWYFDVWGTGTTVTVSS VL: DIVMTQSHKFMSTSVGDRVSATCKASQDVGTSVAWYQQKLGQSPKLLIYWTSTRHTGVPDRFTGSGSGTDFTLTISNVQSEDLADYFCQQYNNYPLTFGDGTKLELKR
no binding | no binding | no binding |  |  |  | binds | binds | binds | anti-human RAGE monoclonal antibody 4E5 (murine, hybridoma-derived) (antibody, V domains shown) VH: QVQLQQSGAELVRPGTSVKVSCKASGYAFNNYLIEWIKQRPGQGLEWIGVINPGSGGTNHNEKFKVKATLTADKSSSTAYIQLSSLTSDDSAVYFCARSAGTARARFAYWGQGTLVTVSA VL: DIQMTQSPSSLSASLGERVSLTCRASQDIGSSLNWLQQEPDGTIKRLIYATSSLDSGVPKRFSGSRSGSDYSLTISSLESEDFVDYYCLQYASFPFTFGSGTKLEIKR
